These are yes or no findings as the source states them, for the method shown. For part of these data: A result given as binding can be weak or reduced; the word gives no strength. For part of these data: Binding seen in cells or lysates may run through a third protein.
Key:
[1] = biological target: MYC-tagged Beclin 1 (human) (UniProt Q14457); assay: co-IP; HEK293 co-transfected with MYC-Beclin 1 and FLAG- or 3×FLAG-RhoB constructs, 48 h; lysate (50 mM Tris-HCl pH 7.4, 150 mM NaCl, 1% NP-40) on anti-FLAG or anti-c-MYC beads overnight at 4 °C, eluted with 3×FLAG or c-MYC peptide; western blot
[2] = biological target: GST-fused RhoB (human) (UniProt P62745); assay: pull-down; about 1 μg of each purified GST-fused protein combined in 0.8% BSA in PBS at 4 °C overnight; precipitated with anti-RhoB or anti-Beclin 1 antibody (IgG as control) plus protein G Sepharose; western blot; both purified
[3] = biological target: T1, GST-fused Beclin 1 (human, UniProt Q14457 1-450); assay: as above
T1 construct: Beclin 1, in pGEX4T-3; also called GST-Beclin 1; source: E. coli BL21 (DE3), purified (Glutathione Sepharose 4B)

The chains behind the UniProt entries cited, without tags or fusion partners. Where a name states a change or a piece, a line headed by the entry shows the natural chain unless it says otherwise.
UniProt Q14457: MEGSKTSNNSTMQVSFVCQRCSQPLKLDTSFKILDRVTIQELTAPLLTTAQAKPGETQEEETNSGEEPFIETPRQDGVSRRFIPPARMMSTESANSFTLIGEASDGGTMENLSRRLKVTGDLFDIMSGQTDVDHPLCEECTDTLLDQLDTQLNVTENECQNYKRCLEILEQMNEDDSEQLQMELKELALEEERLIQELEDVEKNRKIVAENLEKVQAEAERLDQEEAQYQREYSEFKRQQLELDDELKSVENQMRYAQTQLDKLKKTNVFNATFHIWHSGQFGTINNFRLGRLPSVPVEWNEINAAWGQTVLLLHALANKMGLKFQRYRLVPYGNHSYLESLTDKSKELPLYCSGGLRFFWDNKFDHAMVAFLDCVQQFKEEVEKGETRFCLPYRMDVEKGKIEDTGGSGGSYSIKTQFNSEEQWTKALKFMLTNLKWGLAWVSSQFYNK
UniProt P62745: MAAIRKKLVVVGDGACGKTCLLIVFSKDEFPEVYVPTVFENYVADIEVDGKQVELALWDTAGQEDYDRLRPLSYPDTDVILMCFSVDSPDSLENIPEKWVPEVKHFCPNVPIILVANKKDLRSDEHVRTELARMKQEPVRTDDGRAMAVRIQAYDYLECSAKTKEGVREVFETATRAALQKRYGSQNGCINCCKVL

[4] = biological target: 3×FLAG-RhoB (wild type) (human) (UniProt P62745); assay: co-IP; HEK293 co-transfected with MYC-Beclin 1 and FLAG- or 3×FLAG-RhoB constructs, 48 h; lysate (50 mM Tris-HCl pH 7.4, 150 mM NaCl, 1% NP-40) on anti-FLAG or anti-c-MYC beads overnight at 4 °C, eluted with 3×FLAG or c-MYC peptide; western blot
[5] = biological target: FLAG-RhoB-C193S (human) (UniProt P62745); assay: as above

Row | binding [4] | Substance | further results
1 | no binding | MYC-Beclin 1 (1–88) (from UniProt Q14457 1-88) (domain or fragment) | –
2 | binds | MYC-Beclin 1 (150–450) (from UniProt Q14457 150-450) (domain or fragment) | –

The remaining lines, values behind:

Row | Substance | binding [4] | further results
3 | FLAG-RhoB-C193S (from UniProt P62745) | – | binding [1]: no binding
4 | GST-Beclin 1 (88–450) (from UniProt Q14457 88-450) (domain or fragment) | – | binding [2]: binds
5 | GST-Beclin 1 (150–450) (from UniProt Q14457 150-450) (domain or fragment) | – | binding [2]: binds
6 | GST-fused Beclin 1 (from UniProt Q14457 1-450) | – | binding [2]: binds
7 | GST-fused RhoB (from UniProt P62745) | – | binding [3]: binds
8 | MYC-Beclin 1 (1–150) (from UniProt Q14457 1-150) (domain or fragment) | no binding | –
9 | MYC-Beclin 1 (1–244) (from UniProt Q14457 1-244) (domain or fragment) | binds | –
10 | MYC-Beclin 1 (1–337) (from UniProt Q14457 1-337) (domain or fragment) | binds | –
11 | MYC-tagged Beclin 1 (from UniProt Q14457 1-450) | binds | binding [5]: no binding

— publication PMC8110956, “An infection-induced RhoB-Beclin 1-Hsp90 complex enhances clearance of uropathogenic Escherichia coli” (Nature Communications, 2021)
